According to article PMC12815910:
These are yes or no findings as the source states them, for the method shown. In cells and extracts the contact can be indirect. Some entries that bind do so weakly or less than the wild type. Tags and fused reporters may be left off the sequences shown.

Chains of the proteins cited; added tags and fusions are not shown.
UniProt Q8R429: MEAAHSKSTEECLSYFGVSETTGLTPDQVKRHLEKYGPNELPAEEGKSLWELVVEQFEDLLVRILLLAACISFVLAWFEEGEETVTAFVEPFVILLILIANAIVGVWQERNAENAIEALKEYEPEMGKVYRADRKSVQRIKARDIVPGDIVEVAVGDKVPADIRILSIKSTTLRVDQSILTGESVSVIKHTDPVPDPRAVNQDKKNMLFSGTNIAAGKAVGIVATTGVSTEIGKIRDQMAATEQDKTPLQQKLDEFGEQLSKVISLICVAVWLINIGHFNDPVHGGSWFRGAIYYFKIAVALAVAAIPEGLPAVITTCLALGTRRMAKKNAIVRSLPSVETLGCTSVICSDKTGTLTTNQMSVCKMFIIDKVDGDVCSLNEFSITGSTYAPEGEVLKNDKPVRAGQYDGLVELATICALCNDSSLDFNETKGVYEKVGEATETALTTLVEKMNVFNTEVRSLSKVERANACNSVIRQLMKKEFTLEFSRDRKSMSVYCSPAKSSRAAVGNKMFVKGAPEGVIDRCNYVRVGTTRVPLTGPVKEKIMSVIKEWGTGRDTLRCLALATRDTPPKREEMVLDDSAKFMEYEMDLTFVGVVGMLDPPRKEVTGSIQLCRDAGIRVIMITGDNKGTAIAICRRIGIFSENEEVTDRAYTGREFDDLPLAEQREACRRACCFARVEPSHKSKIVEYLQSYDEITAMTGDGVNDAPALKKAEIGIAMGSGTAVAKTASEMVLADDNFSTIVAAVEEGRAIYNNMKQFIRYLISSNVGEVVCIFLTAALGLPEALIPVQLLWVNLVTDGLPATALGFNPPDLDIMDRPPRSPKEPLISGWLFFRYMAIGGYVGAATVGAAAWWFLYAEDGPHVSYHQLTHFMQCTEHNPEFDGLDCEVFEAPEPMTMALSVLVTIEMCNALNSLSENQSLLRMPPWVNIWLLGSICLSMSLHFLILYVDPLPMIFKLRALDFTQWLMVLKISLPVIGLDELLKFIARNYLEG

Molecular target: T1, Flag-MCARE (muscle-enriched Ca2+ regulator; transmembrane protein 233) (mouse) (UniProt D3Z1U7)
T1 sequence: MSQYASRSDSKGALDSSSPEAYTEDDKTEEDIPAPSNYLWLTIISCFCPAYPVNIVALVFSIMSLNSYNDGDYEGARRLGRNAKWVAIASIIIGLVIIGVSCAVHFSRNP
Assay: co-IP; HEK293 cells co-transfected; lysates (500 ug protein) in Co-IP buffer (20 mM NaPO4, 150 mM NaCl, 2 mM MgCl2, 0.1% NP-40, 10% glycerol, pH 7.4, 1 mM DTT) incubated with anti-DDDDK-tag mAb-magnetic agarose 60 min at 4 °C; eluted with 3× FLAG peptide; Western blot

binding: binds
Substance: Myc-SERCA1a (sarco/endoplasmic reticulum Ca2+ ATPase 1a) (from UniProt Q8R429 1-994)
